Reference: article PMC6559944 (Journal of medicinal chemistry, 2019)
Where two headings read alike, the source gives them in different places.

How the values were obtained:
[1] = mice, single oral dose, escalating: 100-400 mg/kg for 6, 150-600 mg/kg for 15, 100-250 mg/kg for 25
[2] = mouse, in vivo
human cell lines = test: Toxicity to human cell lines

## CC(C)(CO)Cn1nc(-c2ccc3cc(OC4CC4)ccc3c2)c(C(N)=O)c1N [Compound 6, 5-amino-3-(6-cyclopropoxynaphthalen-2-yl)-1-(3-hydroxy-2,2-dimethylpropyl)-1H-pyrazole-4-carboxamide]
[1]
  Observable signs of toxicity or distress: no observable signs of toxicity or distress
[2]; 100 mg/kg
  Observable signs of toxicity: Neither dose concentration showed any observable signs of toxicity
  White blood cell counts: 1.5 ± 0.2 K/μL
[2]; 200 mg/kg
  White blood cell counts: 1.5 ± 0.9 K/μL
Human cell lines
  Toxicity to human cell lines: not toxic to a variety of human cell lines
